# Literature values as cited in patent publication US12589090B2, “Compounds and methods for the treatment of degenerative disorders” (Aquilus Pharmaceuticals, Inc., priority 2019, dated 2026).
# At least one read-out could not be matched to a standard name with certainty.
# Conditions: Sucholeiki (WO/2010/075287); cited from earlier work
structure (smiles),measurement,value
"[2H]C([2H])([2H])c1ccc(C#Cc2ccc(S(=O)(=O)N[C@H](Cc3c[nH]c4ccccc34)C(=O)O)s2)cc1 [Compound 118, (R)-3-(1H-Indol-3-yl)-2-[5-(4-trideuteromethyl-phenylethynyl)-thiophene-2-sulfonylamino]-propionic acid-(D3, 98%)]",bioavailability compared to non-deuterated parent (Compound 5),enhance the bioavailability
